The values below come from PMC10618106.

Protein sequences, listed by entry. Tags and fused reporters are not part of them. Lines headed by an entry give the natural chain unless they say otherwise; changes in a name come on top.
UniProt P68400: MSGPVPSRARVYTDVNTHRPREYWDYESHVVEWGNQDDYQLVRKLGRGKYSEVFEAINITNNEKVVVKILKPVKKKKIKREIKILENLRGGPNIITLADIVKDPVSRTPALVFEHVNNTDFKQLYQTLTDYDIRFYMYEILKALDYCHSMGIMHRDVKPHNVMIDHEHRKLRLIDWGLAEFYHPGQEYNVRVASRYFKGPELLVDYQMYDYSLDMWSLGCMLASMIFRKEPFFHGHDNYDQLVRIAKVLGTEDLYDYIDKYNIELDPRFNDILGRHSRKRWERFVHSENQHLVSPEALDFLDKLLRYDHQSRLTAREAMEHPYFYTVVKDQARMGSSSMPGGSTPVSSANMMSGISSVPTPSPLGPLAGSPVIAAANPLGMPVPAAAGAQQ
UniProt O15446: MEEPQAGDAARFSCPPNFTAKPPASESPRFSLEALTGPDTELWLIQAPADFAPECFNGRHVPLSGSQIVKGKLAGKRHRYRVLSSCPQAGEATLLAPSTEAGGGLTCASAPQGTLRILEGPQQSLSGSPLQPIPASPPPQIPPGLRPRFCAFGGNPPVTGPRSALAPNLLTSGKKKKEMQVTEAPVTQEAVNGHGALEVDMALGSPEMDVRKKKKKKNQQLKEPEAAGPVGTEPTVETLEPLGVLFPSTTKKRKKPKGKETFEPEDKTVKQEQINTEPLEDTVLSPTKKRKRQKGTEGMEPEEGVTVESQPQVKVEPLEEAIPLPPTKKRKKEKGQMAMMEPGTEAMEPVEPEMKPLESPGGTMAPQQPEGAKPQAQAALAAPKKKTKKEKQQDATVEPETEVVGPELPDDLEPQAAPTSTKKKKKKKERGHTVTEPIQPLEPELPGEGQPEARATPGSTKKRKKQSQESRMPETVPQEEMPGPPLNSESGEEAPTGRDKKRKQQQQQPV
UniProt P0C0S5: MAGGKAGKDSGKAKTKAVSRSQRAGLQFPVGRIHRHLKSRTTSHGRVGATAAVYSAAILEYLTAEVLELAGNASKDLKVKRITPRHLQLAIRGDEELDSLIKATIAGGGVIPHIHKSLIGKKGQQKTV
UniProt P27694: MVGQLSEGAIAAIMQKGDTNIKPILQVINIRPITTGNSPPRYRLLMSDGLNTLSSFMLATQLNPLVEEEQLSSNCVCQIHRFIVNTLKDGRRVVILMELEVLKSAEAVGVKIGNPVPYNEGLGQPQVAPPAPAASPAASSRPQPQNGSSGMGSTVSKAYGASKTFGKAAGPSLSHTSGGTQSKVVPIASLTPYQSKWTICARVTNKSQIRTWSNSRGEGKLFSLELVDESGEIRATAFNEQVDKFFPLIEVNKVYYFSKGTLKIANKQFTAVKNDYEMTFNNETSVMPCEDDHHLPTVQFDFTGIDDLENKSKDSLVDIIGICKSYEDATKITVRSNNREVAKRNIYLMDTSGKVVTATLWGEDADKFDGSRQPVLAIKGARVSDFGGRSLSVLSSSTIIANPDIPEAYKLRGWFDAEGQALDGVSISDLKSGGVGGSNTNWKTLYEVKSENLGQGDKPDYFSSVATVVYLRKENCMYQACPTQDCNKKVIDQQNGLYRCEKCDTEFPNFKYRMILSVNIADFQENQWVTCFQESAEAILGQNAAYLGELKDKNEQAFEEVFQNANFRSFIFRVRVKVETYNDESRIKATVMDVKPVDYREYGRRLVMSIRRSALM
UniProt Q09028: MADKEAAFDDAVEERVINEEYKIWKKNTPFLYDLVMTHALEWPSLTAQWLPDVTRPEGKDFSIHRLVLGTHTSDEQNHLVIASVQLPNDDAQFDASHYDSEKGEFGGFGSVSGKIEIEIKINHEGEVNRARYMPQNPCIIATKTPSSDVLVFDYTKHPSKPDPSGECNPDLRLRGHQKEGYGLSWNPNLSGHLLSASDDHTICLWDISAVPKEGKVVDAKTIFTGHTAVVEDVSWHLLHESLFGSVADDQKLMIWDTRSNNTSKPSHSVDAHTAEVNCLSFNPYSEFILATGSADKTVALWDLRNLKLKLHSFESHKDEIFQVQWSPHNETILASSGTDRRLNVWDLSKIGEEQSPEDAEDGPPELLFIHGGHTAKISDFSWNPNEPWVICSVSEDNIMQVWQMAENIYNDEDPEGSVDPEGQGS
UniProt P46100: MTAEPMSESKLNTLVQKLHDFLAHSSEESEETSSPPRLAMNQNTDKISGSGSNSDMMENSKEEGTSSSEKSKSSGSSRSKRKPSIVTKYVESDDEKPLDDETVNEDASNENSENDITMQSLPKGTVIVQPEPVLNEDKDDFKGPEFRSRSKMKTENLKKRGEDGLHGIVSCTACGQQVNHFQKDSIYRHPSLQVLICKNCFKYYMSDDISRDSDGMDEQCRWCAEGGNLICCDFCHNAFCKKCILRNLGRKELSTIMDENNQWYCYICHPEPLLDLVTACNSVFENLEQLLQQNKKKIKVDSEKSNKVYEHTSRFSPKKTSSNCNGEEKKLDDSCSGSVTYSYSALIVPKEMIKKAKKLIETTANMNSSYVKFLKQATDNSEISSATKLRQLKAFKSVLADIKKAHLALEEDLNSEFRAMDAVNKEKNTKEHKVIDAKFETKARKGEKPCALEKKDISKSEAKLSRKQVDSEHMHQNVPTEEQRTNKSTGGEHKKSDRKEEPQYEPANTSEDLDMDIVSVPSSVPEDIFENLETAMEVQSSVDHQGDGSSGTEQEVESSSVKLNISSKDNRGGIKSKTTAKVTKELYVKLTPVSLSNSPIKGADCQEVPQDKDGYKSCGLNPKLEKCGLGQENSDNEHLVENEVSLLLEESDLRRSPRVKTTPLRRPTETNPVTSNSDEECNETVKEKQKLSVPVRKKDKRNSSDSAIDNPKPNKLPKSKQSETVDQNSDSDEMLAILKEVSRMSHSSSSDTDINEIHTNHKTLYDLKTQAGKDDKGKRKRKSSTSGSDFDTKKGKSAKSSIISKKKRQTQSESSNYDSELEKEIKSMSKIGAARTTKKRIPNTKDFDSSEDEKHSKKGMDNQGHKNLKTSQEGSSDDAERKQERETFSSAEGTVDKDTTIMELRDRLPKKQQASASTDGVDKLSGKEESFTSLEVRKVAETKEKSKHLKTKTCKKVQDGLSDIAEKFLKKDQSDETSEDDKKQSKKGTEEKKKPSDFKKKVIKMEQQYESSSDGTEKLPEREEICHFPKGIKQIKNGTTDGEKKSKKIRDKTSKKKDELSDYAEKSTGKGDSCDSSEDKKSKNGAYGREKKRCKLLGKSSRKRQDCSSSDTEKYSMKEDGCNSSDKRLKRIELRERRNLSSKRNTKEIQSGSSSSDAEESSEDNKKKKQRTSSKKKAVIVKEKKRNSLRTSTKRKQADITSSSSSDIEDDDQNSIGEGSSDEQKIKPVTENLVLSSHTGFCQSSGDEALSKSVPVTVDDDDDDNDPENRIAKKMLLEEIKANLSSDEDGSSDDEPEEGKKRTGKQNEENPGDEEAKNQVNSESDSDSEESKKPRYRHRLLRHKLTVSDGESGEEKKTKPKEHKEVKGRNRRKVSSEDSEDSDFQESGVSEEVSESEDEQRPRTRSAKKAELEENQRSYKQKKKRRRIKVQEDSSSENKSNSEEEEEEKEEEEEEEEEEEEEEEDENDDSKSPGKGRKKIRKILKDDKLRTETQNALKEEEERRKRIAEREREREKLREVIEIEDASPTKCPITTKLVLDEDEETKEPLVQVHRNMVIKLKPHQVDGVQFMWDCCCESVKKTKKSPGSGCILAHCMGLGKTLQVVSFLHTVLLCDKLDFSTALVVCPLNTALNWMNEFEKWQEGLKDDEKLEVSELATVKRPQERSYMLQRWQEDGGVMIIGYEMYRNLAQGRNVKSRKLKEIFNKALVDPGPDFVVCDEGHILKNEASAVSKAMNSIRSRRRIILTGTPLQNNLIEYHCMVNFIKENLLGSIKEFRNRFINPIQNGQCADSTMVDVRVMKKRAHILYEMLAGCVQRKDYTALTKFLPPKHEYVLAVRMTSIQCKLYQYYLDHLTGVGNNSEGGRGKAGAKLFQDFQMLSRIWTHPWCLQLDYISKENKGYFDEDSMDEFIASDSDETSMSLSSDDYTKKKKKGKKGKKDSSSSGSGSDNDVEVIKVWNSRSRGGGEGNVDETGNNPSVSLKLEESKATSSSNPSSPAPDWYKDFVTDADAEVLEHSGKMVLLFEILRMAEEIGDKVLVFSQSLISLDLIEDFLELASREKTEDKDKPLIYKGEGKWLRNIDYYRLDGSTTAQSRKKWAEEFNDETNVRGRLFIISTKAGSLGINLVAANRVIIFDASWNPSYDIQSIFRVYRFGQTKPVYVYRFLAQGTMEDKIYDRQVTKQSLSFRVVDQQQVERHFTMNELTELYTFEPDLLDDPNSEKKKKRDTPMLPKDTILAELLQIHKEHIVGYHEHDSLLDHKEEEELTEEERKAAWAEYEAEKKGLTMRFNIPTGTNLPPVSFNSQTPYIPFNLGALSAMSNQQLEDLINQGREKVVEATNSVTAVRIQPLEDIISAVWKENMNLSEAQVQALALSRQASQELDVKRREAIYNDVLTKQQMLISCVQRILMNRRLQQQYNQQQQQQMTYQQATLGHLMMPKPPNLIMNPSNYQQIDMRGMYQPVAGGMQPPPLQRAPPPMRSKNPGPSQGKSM
UniProt Q02880: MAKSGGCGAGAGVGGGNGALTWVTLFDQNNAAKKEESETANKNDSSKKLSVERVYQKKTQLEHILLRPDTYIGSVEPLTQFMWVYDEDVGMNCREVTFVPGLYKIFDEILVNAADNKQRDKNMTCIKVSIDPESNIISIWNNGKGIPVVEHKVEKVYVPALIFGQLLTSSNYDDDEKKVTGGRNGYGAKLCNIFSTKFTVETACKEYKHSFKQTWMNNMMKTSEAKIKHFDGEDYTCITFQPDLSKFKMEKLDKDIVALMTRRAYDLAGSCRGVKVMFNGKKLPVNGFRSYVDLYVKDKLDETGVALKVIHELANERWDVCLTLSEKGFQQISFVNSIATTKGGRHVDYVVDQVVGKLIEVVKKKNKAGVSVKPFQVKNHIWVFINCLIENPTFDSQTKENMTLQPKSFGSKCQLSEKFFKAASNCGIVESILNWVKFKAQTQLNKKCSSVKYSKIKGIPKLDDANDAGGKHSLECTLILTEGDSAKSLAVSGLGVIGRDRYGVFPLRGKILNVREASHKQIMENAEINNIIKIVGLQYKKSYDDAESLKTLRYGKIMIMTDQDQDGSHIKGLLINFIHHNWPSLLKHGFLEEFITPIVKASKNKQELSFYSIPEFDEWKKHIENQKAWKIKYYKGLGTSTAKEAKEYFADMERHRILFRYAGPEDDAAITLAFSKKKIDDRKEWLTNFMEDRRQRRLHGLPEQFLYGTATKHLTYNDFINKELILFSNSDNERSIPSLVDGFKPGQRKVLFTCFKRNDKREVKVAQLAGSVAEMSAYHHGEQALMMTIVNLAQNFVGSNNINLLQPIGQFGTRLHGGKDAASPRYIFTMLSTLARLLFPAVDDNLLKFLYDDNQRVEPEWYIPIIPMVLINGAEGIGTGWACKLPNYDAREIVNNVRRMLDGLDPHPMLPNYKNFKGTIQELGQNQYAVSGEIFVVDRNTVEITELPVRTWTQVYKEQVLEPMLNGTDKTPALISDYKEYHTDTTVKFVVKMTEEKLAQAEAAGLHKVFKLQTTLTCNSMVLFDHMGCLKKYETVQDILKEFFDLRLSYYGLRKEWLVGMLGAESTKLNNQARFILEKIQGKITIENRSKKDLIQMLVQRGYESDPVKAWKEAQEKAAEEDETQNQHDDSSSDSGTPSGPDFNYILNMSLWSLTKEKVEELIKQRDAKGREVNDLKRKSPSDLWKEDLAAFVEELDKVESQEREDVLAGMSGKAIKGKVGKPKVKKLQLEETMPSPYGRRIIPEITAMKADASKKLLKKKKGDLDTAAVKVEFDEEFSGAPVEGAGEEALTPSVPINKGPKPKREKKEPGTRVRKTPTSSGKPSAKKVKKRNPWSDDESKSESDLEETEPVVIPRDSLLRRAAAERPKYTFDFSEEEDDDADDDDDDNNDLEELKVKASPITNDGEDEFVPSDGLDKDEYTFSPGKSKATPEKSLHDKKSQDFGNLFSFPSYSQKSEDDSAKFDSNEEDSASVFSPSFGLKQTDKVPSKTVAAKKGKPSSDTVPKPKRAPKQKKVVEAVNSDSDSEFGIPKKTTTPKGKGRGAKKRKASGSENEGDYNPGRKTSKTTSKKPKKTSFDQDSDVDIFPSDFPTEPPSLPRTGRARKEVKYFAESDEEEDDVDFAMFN
UniProt Q969G3: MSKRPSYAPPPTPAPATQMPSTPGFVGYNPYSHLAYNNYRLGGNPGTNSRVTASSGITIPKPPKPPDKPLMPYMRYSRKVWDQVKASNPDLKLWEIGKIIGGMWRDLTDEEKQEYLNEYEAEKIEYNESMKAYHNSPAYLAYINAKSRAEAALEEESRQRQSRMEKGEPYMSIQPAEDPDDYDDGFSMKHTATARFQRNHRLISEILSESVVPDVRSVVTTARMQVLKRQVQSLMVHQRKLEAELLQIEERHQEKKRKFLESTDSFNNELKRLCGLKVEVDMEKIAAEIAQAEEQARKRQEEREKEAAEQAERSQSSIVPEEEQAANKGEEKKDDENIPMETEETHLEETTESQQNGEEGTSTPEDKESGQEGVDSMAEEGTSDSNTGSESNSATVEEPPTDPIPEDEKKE

Results are given in words; binding and its absence hold for the method and conditions named. Binding seen in cells or lysates may run through a third protein. Here binding means that the protein was enriched with, or labelled near, the bait; the list need not be complete. Tags and fused reporters may be left off the sequences shown.

This experiment deals with FLAG-tagged CK2α (human) (UniProt P68400). The experiment can be described thus: affinity purification with mass spectrometry; FLAG-CK2α expressed in HEK293; nuclear fractions of cells starved and restimulated with serum to early G1 (6 h) or late G1 (15-16 h); pre-cleared with normal IgG-agarose, anti-FLAG M2 agarose, eluted with FLAG peptide, trypsin, nano-LC MS/MS (Mascot).

With RuvB-like 1 (from UniProt Q9Y265 1-456), the binding entry is given as “binds”.
For “Nipped-B-like protein (from UniProt Q6KC79 1-2804)”, the binding result is “binds”.
For “General transcription factor II-I (from UniProt P78347 1-998)”, the binding result is listed as “binds”.
In the case of “Transcription intermediary factor 1-beta (from UniProt Q13263 1-835)”, the binding entry is listed as “binds”.
In the case of “DNA-directed RNA polymerase I subunit RPA34 (from UniProt O15446 1-510)” it was “binds”.
“Putative pre-mRNA splicing factor ATP-dependent RNA helicase DHX15 (from UniProt O43143 1-795)”: the binding result is given as “binds”.
For NOLC1 (from UniProt Q14978 1-699), the binding result is reported as “binds”.
“Histone H2A.Z (from UniProt P0C0S5 1-128)”: the binding entry was “binds”.
Take “FACT complex subunit SPT16 (from UniProt Q9Y5B9 1-1047)”: the binding entry was “binds”.
Consider “Replication factor C subunit 4 (from UniProt P35249 1-363)”, for which the binding result is given as “binds”.
Take “Replication protein A 70 kD DNA-binding subunit (from UniProt P27694 1-616)”: the binding entry is on record as “binds”.
Turning to PARP1 (from UniProt P09874 1-1014), the binding result is on record as “binds”.
In the case of “Histone H1.3 (from UniProt P16402 1-221)”, the binding entry is reported as “binds”.
On to DDX17 (from UniProt Q92841 1-729), for which the binding result was “binds”.
As for “Transcriptional repressor p66-beta (from UniProt Q8WXI9 1-593)”, the binding entry is reported as “binds”.
Regarding “Probable global transcription activator SNF2L1 (from UniProt P28370 1-1042)”, the binding entry is recorded as “binds”.
In the case of “Histone-binding protein RBBP4 (from UniProt Q09028 1-425)”, the binding entry is “binds”.
In the case of “Bcl-2-associated transcription factor 1 (from UniProt Q9NYF8 1-920)” it was “binds”; in that of “Transcription initiation factor TFIID subunit 4 (from UniProt O00268 1-1085)”, “binds”.
Turning to DDX21 (from UniProt Q9NR30 1-783), the binding entry is “binds”.
As to “Protein arginine N-methyltransferase 5 (from UniProt O14744 1-637)”, the binding result is listed as “binds”.
Take “Histone deacetylase 2 (HDAC2) (from UniProt Q92769 1-488)”: the binding result was “binds”.
In the case of “Histone H1.2 (from UniProt P16403 1-213)” it was “binds”; in that of “Transcriptional regulator ATRX (from UniProt P46100 1-2492)”, “binds”; in that of “Heterochromatin protein 1-binding protein 3 (from UniProt Q5SSJ5 1-553)”, “binds”.
Consider “ATP-dependent RNA helicase DDX3X (from UniProt O00571 1-662)”, for which the binding result was “binds”.
In the case of NPM1 (from UniProt P06748 1-294), the binding entry is recorded as “binds”.
For the molecule “U5 small nuclear ribonucleoprotein 200-kD helicase (from UniProt O75643 1-2136)”, the binding entry is listed as “binds”.
For “Methylosome protein 50 (WDR77) (from UniProt Q9BQA1 1-342)” the value was “binds”.
Regarding “Splicing factor 3B subunit 1 (from UniProt O75533 1-1304)”, the binding result is listed as “binds”.
In the case of “Splicing factor 3B subunit 2 (from UniProt Q13435 1-895)” it was “binds”; in that of “FACT complex subunit SSRP1 (from UniProt Q08945 1-709)”, “binds”; in that of “X-ray repair cross-complementing protein 6 (from UniProt P12956 1-609)”, “binds”.
Turning to “DNA topoisomerase 2-beta (from UniProt Q02880 1-1626)”, the binding entry is “binds”.
Consider “Mediator of DNA damage checkpoint protein 1 (MDC1) (from UniProt Q14676 1-2089)”, for which the binding entry is recorded as “binds”.
On to “SWI/SNF-related matrix-associated actin-dependent regulator of chromatin subfamily E member 1 (from UniProt Q969G3 1-411)”, for which the binding result is “binds”.
Consider “Histone H1.0 (from UniProt P07305 1-194)”, for which the binding result is “binds”.
With DDX39B (from UniProt Q13838 1-428), the binding entry is recorded as “binds”.
In the case of “Transcription activator BRG1 (from UniProt P51532 1-1647)”, the binding entry is “binds”.
Take “Eukaryotic initiation factor 4A-I (from UniProt P60842 1-406)”: the binding result is given as “binds”.

B1: rRNA 2′-O-methyltransferase fibrillarin (protein, UniProt P22087 1-321)
chain: MKPGFSPRGGGFGGRGGFGDRGGRGGRGGFGGGRGRGGGFRGRGRGGGGGGGGGGGGGRGGGGFHSGGNRGRGRGGKRGNQSGKNVMVEPHRHEGVFICRGKEDALVTKNLVPGESVYGEKRVSISEGDDKIEYRAWNPFRSKLAAAILGGVDQIHIKPGAKVLYLGAASGTTVSHVSDIVGPDGLVYAVEFSHRSGRDLINLAKKRTNIIPVIEDARHPHKYRMLIAMVDVIFADVAQPDQTRIVALNAHTFLRNGGHFVISIKANCIDSTASAEAVFASEVKKMQQENMKPQEQLTLEPYERDHAVVVGVYRPPPKVKN
Take B1: the binding entry is listed as “binds”.

B2: Histone deacetylase complex subunit SAP18 (protein, UniProt O00422 1-153)
chain: MAVESRVTQEEIKKEPEKPIDREKTCPLLLRVFTTNNGRHHRMDEFSRGNVPSSELQIYTWMDATLKELTSLVKEVYPEARKKGTHFNFAIVFTDVKRPGYRVKEIGSTMSGRKGTDDSMTLQSQKFQIGDYLDIAITPPNRAPPPSGRMRPY
B2: the binding entry is given as “binds”.

B3: Replication factor C subunit 1 (protein, UniProt P35251 1-1148)
chain: MDIRKFFGVIPSGKKLVSETVKKNEKTKSDEETLKAKKGIKEIKVNSSRKEDDFKQKQPSKKKRIIYDSDSESEETLQVKNAKKPPEKLPVSSKPGKISRQDPVTYISETDEEDDFMCKKAASKSKENGRSTNSHLGTSNMKKNEENTKTKNKPLSPIKLTPTSVLDYFGTGSVQRSNKKMVASKRKELSQNTDESGLNDEAIAKQLQLDEDAELERQLHEDEEFARTLAMLDEEPKTKKARKDTEAGETFSSVQANLSKAEKHKYPHKVKTAQVSDERKSYSPRKQSKYESSKESQQHSKSSADKIGEVSSPKASSKLAIMKRKEESSYKEIEPVASKRKENAIKLKGETKTPKKTKSSPAKKESVSPEDSEKKRTNYQAYRSYLNREGPKALGSKEIPKGAENCLEGLIFVITGVLESIERDEAKSLIERYGGKVTGNVSKKTNYLVMGRDSGQSKSDKAAALGTKIIDEDGLLNLIRTMPGKKSKYEIAVETEMKKESKLERTPQKNVQGKRKISPSKKESESKKSRPTSKRDSLAKTIKKETDVFWKSLDFKEQVAEETSGDSKARNLADDSSENKVENLLWVDKYKPTSLKTIIGQQGDQSCANKLLRWLRNWQKSSSEDKKHAAKFGKFSGKDDGSSFKAALLSGPPGVGKTTTASLVCQELGYSYVELNASDTRSKSSLKAIVAESLNNTSIKGFYSNGAASSVSTKHALIMDEVDGMAGNEDRGGIQELIGLIKHTKIPIICMCNDRNHPKIRSLVHYCFDLRFQRPRVEQIKGAMMSIAFKEGLKIPPPAMNEIILGANQDIRQVLHNLSMWCARSKALTYDQAKADSHRAKKDIKMGPFDVARKVFAAGEETAHMSLVDKSDLFFHDYSIAPLFVQENYIHVKPVAAGGDMKKHLMLLSRAADSICDGDLVDSQIRSKQNWSLLPAQAIYASVLPGELMRGYMTQFPTFPSWLGKHSSTGKHDRIVQDLALHMSLRTYSSKRTVNMDYLSLLRDALVQPLTSQGVDGVQDVVALMDTYYLMKEDFENIMEISSWGGKPSPFSKLDPKVKAAFTRAYNKEAHLTPYSLQAIKASRHSTSPSLDSEYNEELNEDDSQSDEKDQDAIETDAMIKKKTKSSKPSKPEKDKEPRKGKGKSSKK
Regarding B3, the binding entry is recorded as “binds”.

B4: Barrier-to-autointegration factor (protein, UniProt O75531 1-89)
chain: MTTSQKHRDFVAEPMGEKPVGSLAGIGEVLGKKLEERGFDKAYVVLGQFLVLKKDEDLFREWLKDTCGANAKQSRDCFGCLREWCDAFL
Consider B4, for which the binding entry was “binds”.
